Source: PMC8973879
These are yes or no findings as the source states them, for the method shown. In cells and extracts the contact can be indirect. Some results given as binding are weak or reduced against the parent protein; the word gives no strength. For part of these data: Tags and fused reporters may be left off the sequences shown.

T1: FOXM1 (Forkhead box protein M1), endogenous (human (endogenous in CL1-5)) (UniProt Q08050)
T1 sequence: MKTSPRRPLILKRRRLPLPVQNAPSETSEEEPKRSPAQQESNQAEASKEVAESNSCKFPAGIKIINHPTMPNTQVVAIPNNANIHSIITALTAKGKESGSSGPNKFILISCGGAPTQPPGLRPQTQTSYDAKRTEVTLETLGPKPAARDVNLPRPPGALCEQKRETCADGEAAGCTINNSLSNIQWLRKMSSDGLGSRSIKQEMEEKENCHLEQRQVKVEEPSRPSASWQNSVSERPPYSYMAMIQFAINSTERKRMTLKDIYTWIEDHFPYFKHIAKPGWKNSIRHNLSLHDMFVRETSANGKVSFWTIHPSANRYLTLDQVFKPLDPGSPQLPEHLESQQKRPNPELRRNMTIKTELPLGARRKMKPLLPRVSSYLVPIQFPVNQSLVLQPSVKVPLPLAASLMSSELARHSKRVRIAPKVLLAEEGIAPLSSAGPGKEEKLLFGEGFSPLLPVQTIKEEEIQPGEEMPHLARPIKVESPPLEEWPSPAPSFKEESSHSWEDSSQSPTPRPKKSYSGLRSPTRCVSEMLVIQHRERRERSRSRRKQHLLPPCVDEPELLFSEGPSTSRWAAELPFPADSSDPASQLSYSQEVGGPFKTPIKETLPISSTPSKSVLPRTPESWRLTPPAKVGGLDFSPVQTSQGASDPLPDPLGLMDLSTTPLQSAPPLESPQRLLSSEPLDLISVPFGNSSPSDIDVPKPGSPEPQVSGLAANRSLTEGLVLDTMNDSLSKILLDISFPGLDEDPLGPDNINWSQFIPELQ

T2: HA-FOXM1 (UniProt Q08050)
T2 sequence: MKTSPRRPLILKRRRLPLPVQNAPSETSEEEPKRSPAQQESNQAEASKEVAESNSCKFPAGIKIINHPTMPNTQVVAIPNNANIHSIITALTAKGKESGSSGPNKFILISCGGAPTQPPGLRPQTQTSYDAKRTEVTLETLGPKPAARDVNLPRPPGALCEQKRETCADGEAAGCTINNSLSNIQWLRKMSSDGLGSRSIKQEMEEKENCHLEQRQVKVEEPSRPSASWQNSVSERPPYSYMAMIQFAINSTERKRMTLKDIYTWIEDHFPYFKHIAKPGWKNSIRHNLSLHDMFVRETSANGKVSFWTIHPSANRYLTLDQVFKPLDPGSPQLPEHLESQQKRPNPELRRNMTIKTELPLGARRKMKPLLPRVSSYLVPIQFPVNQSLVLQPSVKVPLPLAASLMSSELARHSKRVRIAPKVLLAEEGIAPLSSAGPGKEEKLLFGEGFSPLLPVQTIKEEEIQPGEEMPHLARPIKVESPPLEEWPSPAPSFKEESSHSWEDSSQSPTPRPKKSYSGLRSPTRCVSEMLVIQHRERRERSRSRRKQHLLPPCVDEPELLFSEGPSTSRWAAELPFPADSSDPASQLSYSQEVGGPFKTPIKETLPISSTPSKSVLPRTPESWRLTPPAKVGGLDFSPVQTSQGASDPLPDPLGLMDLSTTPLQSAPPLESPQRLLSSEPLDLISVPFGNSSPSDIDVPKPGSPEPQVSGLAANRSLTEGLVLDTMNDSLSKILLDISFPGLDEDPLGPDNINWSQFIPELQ


What was measured:
[1] = biological target: T1, FOXM1 (Forkhead box protein M1), endogenous (human (endogenous in CL1-5)); test: co-IP; endogenous proteins, CL1-5 cells lysed in RIPA buffer; immunoprecipitation with anti-STIL or anti-FOXM1 antibody (4 °C, 1 h), protein A/G agarose overnight at 4 °C; Western blotting
[2] = biological target: T2, HA-FOXM1; test: co-IP; HEK293T cells transiently co-transfected with HA-FOXM1 and full-length or truncated GFP-STIL; immunoprecipitation with anti-HA antibody; Western blotting

| Binder | binding [1] | binding [2] |
| --- | --- | --- |
| STIL (SCL/TAL1-interrupting locus), endogenous (protein, UniProt Q15468 1-1287) MEPIYPFARPQMNTRFPSSRMVPFHFPPSKCALWNPTPTGDFIYLHLSYYRNPKLVVTEKTIRLAYRHAKQNKKNSSCFLLGSLTADEDEEGVTLTVDRFDPGREVPECLEITPTASLPGDFLIPCKVHTQELCSREMIVHSVDDFSSALKALQCHICSKDSLDCGKLLSLRVHITSRESLDSVEFDLHWAAVTLANNFKCTPVKPIPIIPTALARNLSSNLNISQVQGTYKYGYLTMDETRKLLLLLESDPKVYSLPLVGIWLSGITHIYSPQVWACCLRYIFNSSVQERVFSESGNFIIVLYSMTHKEPEFYECFPCDGKIPDFRFQLLTSKETLHLFKNVEPPDKNPIRCELSAESQNAETEFFSKASKNFSIKRSSQKLSSGKMPIHDHDSGVEDEDFSPRPIPSPHPVSQKISKIQPSVPELSLVLDGNFIESNPLPTPLEMVNNENPPLINHLEHLKPLQPQLYDEKHSPEVEAGEPSLRGIPNQLNQDKPALLRHCKVRQPPAYKKGNPHTRNSIKPSSHNGPSHDIFEKLQTVSAGNVQNEEYPIRPSTLNSRQSSLAPQSQPHDFVFSPHNSGRPMELQIPTPPLPSYCSTNVCRCCQHHSHIQYSPLNSWQGANTVGSIQDVQSEALQKHSLFHPSGCPALYCNAFCSSSSPIALRPQGDMGSCSPHSNIEPSPVARPPSHMDLCNPQPCTVCMHTPKTESDNGMMGLSPDAYRFLTEQDRQLRLLQAQIQRLLEAQSLMPCSPKTTAVEDTVQAGRQMELVSVEAQSSPGLHMRKGVSIAVSTGASLFWNAAGEDQEPDSQMKQDDTKISSEDMNFSVDINNEVTSLPGSASSLKAVDIPSFEESNIAVEEEFNQPLSVSNSSLVVRKEPDVPVFFPSGQLAESVSMCLQTGPTGGASNNSETSEEPKIEHVMQPLLHQPSDNQKIYQDLLGQVNHLLNSSSKETEQPSTKAVIISHECTRTQNVYHTKKKTHHSRLVDKDCVLNATLKQLRSLGVKIDSPTKVKKNAHNVDHASVLACISPEAVISGLNCMSFANVGMSGLSPNGVDLSMEANAIALKYLNENQLSQLSVTRSNQNNCDPFSLLHINTDRSTVGLSLISPNNMSFATKKYMKRYGLLQSSDNSEDEEEPPDNADSKSEYLLNQNLRSIPEQLGGQKEPSKNDHEIINCSNCESVGTNADTPVLRNITNEVLQTKAKQQLTEKPAFLVKNLKPSPAVNLRTGKAEFTQHPEKENEGDITIFPESLQPSETLKQMNSMNSVGTFLDVKRLRQLPKLF | binds |  |
| GFP-STIL (a.a. 1-1061) (domain or fragment, UniProt Q15468-2 1-1061) MEPIYPFARPQMNTRFPSSRMVPFHFPPSKCALWNPTPTGDFIYLHLSYYRNPKLVVTEKTIRLAYRHAKQNKKNSSCFLLGSLTADEDEEGVTLTVDRFDPGREVPECLEITPTASLPGDFLIPCKVHTQELCSREMIVHSVDDFSSALKALQCHICSKDSLDCGKLLSLRVHITSRESLDSVEFDLHWAAVTLANNFKCTPVKPIPIIPTALARNLSSNLNISQVQGTYKYGYLTMDETRKLLLLLESDPKVYSLPLVGIWLSGITHIYSPQVWACCLRYIFNSSVQERVFSESGNFIIVLYSMTHKEPEFYECFPCDGKIPDFRFQLLTSKETLHLFKNVEPPDKNPIRCELSAESQNAETEFFSKASKNFSIKRSSQKLSSGKMPIHDHDSGVEDEDFSPRPIPSPHPVSQKISKIQPSVPELSLVLDGNFIESNPLPTPLEMVNNENPPLINHLEHLKPLQPQLYDEKHSPEVEAGEPSLRGIPNQLNQDKPALLRHCKVRQPPAYKKGNPHTRNSIKPSSHNGPSHDIFEKLQTVSAGNVQNEEYPIRPSTLNSRQSSLAPQSQPHDFVFSPHNSGRPMELQIPTPPLPSYCSTNVCRCCQHHSHIQYSPLNSWQGANTVGSIQDVQSEALQKHSLFHPSGCPALYCNAFCSSSSPIALRPQGDMGSCSPHSNIEPSPVARPPSHMDLCNPQPCTVCMHTPKTESDNGMMGLSPDAYRFLTEQDRQLRLLQAQIQRLLEAQSLMPCSPKTTAVEDTVQAGRQMELVSVEAQSSPGLHMRKGVSIAVSTGASLFWNAAGEDQEPDSQMKQDDTKISSEDMNFSVDINNEVTSLPGSASSLKAVDIPSFEESNIAVEEEFNQPLSVSNSSSLVVRKEPDVPVFFPSGQLAESVSMCLQTGPTGGASNNSETSEEPKIEHVMQPLLHQPSDNQKIYQDLLGQVNHLLNSSSKETEQPSTKAVIISHECTRTQNVYHTKKKTHHSRLVDKDCVLNATLKQLRSLGVKIDSPTKVKKNAHNVDHASVLACISPEAVISGLNCMSFANVGMSGLSPNGVDL |  | binds |
| GFP-STIL (a.a. 437-1288) (domain or fragment, UniProt Q15468-2 437-1288) ESNPLPTPLEMVNNENPPLINHLEHLKPLQPQLYDEKHSPEVEAGEPSLRGIPNQLNQDKPALLRHCKVRQPPAYKKGNPHTRNSIKPSSHNGPSHDIFEKLQTVSAGNVQNEEYPIRPSTLNSRQSSLAPQSQPHDFVFSPHNSGRPMELQIPTPPLPSYCSTNVCRCCQHHSHIQYSPLNSWQGANTVGSIQDVQSEALQKHSLFHPSGCPALYCNAFCSSSSPIALRPQGDMGSCSPHSNIEPSPVARPPSHMDLCNPQPCTVCMHTPKTESDNGMMGLSPDAYRFLTEQDRQLRLLQAQIQRLLEAQSLMPCSPKTTAVEDTVQAGRQMELVSVEAQSSPGLHMRKGVSIAVSTGASLFWNAAGEDQEPDSQMKQDDTKISSEDMNFSVDINNEVTSLPGSASSLKAVDIPSFEESNIAVEEEFNQPLSVSNSSSLVVRKEPDVPVFFPSGQLAESVSMCLQTGPTGGASNNSETSEEPKIEHVMQPLLHQPSDNQKIYQDLLGQVNHLLNSSSKETEQPSTKAVIISHECTRTQNVYHTKKKTHHSRLVDKDCVLNATLKQLRSLGVKIDSPTKVKKNAHNVDHASVLACISPEAVISGLNCMSFANVGMSGLSPNGVDLSMEANAIALKYLNENQLSQLSVTRSNQNNCDPFSLLHINTDRSTVGLSLISPNNMSFATKKYMKRYGLLQSSDNSEDEEEPPDNADSKSEYLLNQNLRSIPEQLGGQKEPSKNDHEIINCSNCESVGTNADTPVLRNITNEVLQTKAKQQLTEKPAFLVKNLKPSPAVNLRTGKAEFTQHPEKENEGDITIFPESLQPSETLKQMNSMNSVGTFLDVKRLRQLPKLF |  | binds |
